Drawing on PMC3564912, “Single Particle Electron Microscopy Analysis of the Bovine Anion Exchanger 1 Reveals a Flexible Linker Connecting the Cytoplasmic and Membrane Domains” (PLoS ONE, 2013), this text covers binding for one molecule.

Results are given in words; binding and its absence hold for the method and conditions named. Some results given as binding are weak or reduced against the parent protein; the word gives no strength.

The experiment deals with bovine anion exchanger 1 (AE1) (bovine) (UniProt Q9XSW5). Briefly: negative staining electron microscopy, orthogonal tilt reconstruction and single particle analysis; freshly prepared AE1 dimers stained with 0.8% uranyl formate on carbon film; 174,197 particles; 2-fold symmetry imposed; 2.4 nm at 0.5 FSC; both purified.

B1: bovine anion exchanger 1 (AE1) (natural protein, UniProt Q9XSW5 1-930, looked up)
chain: MGDPEEYEDQLEETLEQKEYEDHDSVSIPMEEAEGDTIQEEEAEARVNQLTDTDYHTTSQHPETHKVCVQLRELVMDEKNQEIQWMETARWVGLEENLGKDGIWGRPHLPYLNFWSLLELQKAFAKGTVLLDLPGKSLAEVANQLLDRFTFEGQIQPDDQDNLLRVLLLKHSHASDMEALGGVKPVVVTHSGDPSEPLLPQHPSLETELFCEQGEGSTRGHAPEILGKSPQDWEATLVLVGCARFLKRPVLGFVRLKEPMEPEPKPEGSEEPAVPVRFLIVLLGPEGPNINYTQLGRAAATLMSERVFWNDAYLAQSKETLVQSLEGFLDCSLVLPPLDAPSEKALLSLVPVQKELLRRRYLPSPAKPDPSIFKDLDVKKGPGDTPEDPLQRTGKLFGGLVRDIRRRYPRYLSDITDALSPQVLSAIIFIYFAALTPAITFGGLLGDKTENMIGVSELLLSTALQGIIFSLLGAQPLLVLGFSGPLLVFEEAFYSFCQTNNLEYIVGRVWIGFWLILLVVLVVAFEGSFLVRFISRYTQEIFSFLISLIFIYETFYKLVTIFQDHPLQKNYDHDVLTTPKPQAALPNTALLSLVLMAGTFFLAMMLRKFKNSSYFPGKLRRIIGDFGVPISILIMVMVDALIQDTYTQKLSVPEGLSVSNPTERDWLIHPLGIRVEFPIWMMFASALPALLVFILIFLESQITTLIISKPERKMVKGSGFHLDLLLIIGMGGVGAIFGMPWLSATTVRTVTHANALTVMSKDSTPGAVSQIQGVKEQRISGLLVAVLVGVSILMGPVLRHIPLAVLFGIFLYMGVTSLSGIQLFDRVLLLLKPRKYYPEVPYARRVKTWRMHLFTITQIVCLVVLWVVRSIKQISLALPFILILTVPLRRFLLPFIFRDMELKLLDADDVKLNLDEQNGQDEYDEVAMPV
notes: anion exchanger 1 (AE1, band 3), bovine, native protein from erythrocyte membranes; monomer about 100 kDa; Solubilised in dodecyl maltoside (0.03% DDM in the final buffer); The dimer fraction from size exclusion was used; also called bovine AE1; full-length AE1 dimer; source: purified from bovine erythrocyte membranes (ghosts; DDM extraction, DE-52 ion exchange, Superose 6 size exclusion)
Take B1: the binding entry is “binds”.
